Results taken from PMC7862700.
Only a part is listed here, and it is no random draw. For part of these data: At the low end of the ranking, values are background and their order means little. The list shows a part of the results. For part of these data: Construct or isoform of the protein are uncertain.

Tests used:
Assay in all cases: DAPPL (digital affinity profiling via proximity ligation, sequencing)
Details in all cases: 10 mM Tris-HCl pH 7.5, 50 mM NaCl, 1 mM DTT, 4% glycerol, room temperature, 30 min; GST-TFs on glutathione beads, 16-mer random dsDNA library, 0.1% …; high values mean tight binding; double strand, one strand shown; scale: fold enrichment (6-mer frequency, TF over GST control)
[1] = target: T1, GABPA (UniProt Q06546)
T1 sequence: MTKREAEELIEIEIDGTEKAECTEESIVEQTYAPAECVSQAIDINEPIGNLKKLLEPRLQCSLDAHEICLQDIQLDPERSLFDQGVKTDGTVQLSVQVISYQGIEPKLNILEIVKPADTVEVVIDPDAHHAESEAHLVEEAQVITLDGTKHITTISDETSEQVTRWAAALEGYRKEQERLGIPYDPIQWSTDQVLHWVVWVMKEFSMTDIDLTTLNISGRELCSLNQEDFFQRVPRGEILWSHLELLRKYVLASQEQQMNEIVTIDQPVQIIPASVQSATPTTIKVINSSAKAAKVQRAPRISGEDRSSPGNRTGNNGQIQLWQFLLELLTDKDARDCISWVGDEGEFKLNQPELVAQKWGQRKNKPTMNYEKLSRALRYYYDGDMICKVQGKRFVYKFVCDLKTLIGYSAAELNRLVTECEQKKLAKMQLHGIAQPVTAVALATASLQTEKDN

[2] = target: T2, ETS1 (UniProt P14921)
T2 sequence: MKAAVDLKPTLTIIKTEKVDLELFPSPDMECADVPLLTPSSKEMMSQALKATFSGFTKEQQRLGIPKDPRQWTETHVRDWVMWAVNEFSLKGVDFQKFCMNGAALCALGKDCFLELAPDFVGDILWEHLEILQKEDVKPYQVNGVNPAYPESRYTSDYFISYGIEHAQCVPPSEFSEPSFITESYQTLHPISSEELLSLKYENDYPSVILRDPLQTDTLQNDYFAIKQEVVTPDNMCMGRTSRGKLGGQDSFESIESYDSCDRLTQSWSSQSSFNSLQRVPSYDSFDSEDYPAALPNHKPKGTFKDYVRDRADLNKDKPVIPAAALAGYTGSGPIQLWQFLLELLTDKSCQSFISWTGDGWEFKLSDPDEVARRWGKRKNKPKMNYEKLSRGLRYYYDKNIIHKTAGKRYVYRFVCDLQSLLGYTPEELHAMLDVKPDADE

[3] = target: T3, SPDEF (UniProt O95238)
T3 sequence: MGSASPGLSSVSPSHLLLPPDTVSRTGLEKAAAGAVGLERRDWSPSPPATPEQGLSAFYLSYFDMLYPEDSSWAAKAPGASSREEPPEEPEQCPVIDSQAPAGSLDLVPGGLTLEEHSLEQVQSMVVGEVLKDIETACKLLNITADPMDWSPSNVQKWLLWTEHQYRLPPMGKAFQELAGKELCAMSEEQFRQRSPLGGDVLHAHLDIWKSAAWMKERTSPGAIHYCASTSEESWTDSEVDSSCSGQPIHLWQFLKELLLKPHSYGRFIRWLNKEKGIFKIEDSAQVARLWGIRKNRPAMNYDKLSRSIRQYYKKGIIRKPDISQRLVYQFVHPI

## GCGTGC
[1]
  binding signal: 0.827
[2]
  binding signal: 0.882
[3]
  binding signal: 0.733

## TCAGGT
[1]
  binding signal: 0.926
[2]
  binding signal: 0.91
[3]
  binding signal: 0.92

## AGGGAC
[1]
  binding signal: 0.744
[2]
  binding signal: 0.795
[3]
  binding signal: 0.799

## GGGTTG
[1]
  binding signal: 0.836
[2]
  binding signal: 0.896
[3]
  binding signal: 0.849

## CCCAGC
[1]
  binding signal: 0.741
[2]
  binding signal: 0.886
[3]
  binding signal: 0.797

## GGAATC
[1]
  binding signal: 0.736
[2]
  binding signal: 0.726
[3]
  binding signal: 0.748

## CGTGCC
[1]
  binding signal: 0.886
[2]
  binding signal: 0.876
[3]
  binding signal: 0.838

## AGTGGA
[1]
  binding signal: 0.755
[2]
  binding signal: 0.778
[3]
  binding signal: 0.663

## CGTGGA
[1]
  binding signal: 0.587
[2]
  binding signal: 0.533
[3]
  binding signal: 0.493

## GTGATT
[1]
  binding signal: 0.682
[2]
  binding signal: 0.709
[3]
  binding signal: 0.734

## GTGTAG
[1]
  binding signal: 0.619
[2]
  binding signal: 0.683
[3]
  binding signal: 0.678

## GCGCGG
[1]
  binding signal: 0.846
[2]
  binding signal: 0.803
[3]
  binding signal: 0.796

## ATGTGA
[1]
  binding signal: 0.695
[2]
  binding signal: 0.635
[3]
  binding signal: 0.692

## GGGTCA
[1]
  binding signal: 0.619
[2]
  binding signal: 0.723
[3]
  binding signal: 0.723

## GAGTTC
[1]
  binding signal: 0.743
[2]
  binding signal: 0.729
[3]
  binding signal: 0.782

## GCCGGC
[1]
  binding signal: 0.816
[2]
  binding signal: 0.76
[3]
  binding signal: 0.786

## CAGGCA
[1]
  binding signal: 0.792
[2]
  binding signal: 0.757
[3]
  binding signal: 0.736

## GCAGAC
[1]
  binding signal: 0.79
[2]
  binding signal: 0.741
[3]
  binding signal: 0.726

## GGGGGT
[1]
  binding signal: 0.563
[2]
  binding signal: 0.566
[3]
  binding signal: 0.501

## GTGGGA
[1]
  binding signal: 0.561
[2]
  binding signal: 0.514
[3]
  binding signal: 0.51

## TCGGAA
[1]
  binding signal: 0.527
[2]
  binding signal: 0.506
[3]
  binding signal: 0.503

## GCACGT
[1]
  binding signal: 0.805
[2]
  binding signal: 0.784
[3]
  binding signal: 0.77

## GAGCTG
[1]
  binding signal: 0.694
[2]
  binding signal: 0.694
[3]
  binding signal: 0.766

## GAGGTT
[1]
  binding signal: 0.777
[2]
  binding signal: 0.772
[3]
  binding signal: 0.756

## GAGAGG
[1]
  binding signal: 0.479
[2]
  binding signal: 0.498
[3]
  binding signal: 0.494

## TGGAGG
[1]
  binding signal: 0.518
[2]
  binding signal: 0.484
[3]
  binding signal: 0.441

## GGGCCG
[1]
  binding signal: 0.604
[2]
  binding signal: 0.637
[3]
  binding signal: 0.644

## AGGGTG
[1]
  binding signal: 0.769
[2]
  binding signal: 0.773
[3]
  binding signal: 0.693

## CAGTCC
[1]
  binding signal: 0.705
[2]
  binding signal: 0.626
[3]
  binding signal: 0.67

## CTGAGT
[1]
  binding signal: 0.64
[2]
  binding signal: 0.616
[3]
  binding signal: 0.584

## CGAGTC
[1]
  binding signal: 0.518
[2]
  binding signal: 0.501
[3]
  binding signal: 0.514

## GGCCGG
[1]
  binding signal: 0.497
[2]
  binding signal: 0.569
[3]
  binding signal: 0.604

## GGACTG
[1]
  binding signal: 0.789
[2]
  binding signal: 0.673
[3]
  binding signal: 0.72

## GAGTTA
[1]
  binding signal: 0.572
[2]
  binding signal: 0.55
[3]
  binding signal: 0.6

## GATGTG
[1]
  binding signal: 0.871
[2]
  binding signal: 0.856
[3]
  binding signal: 1.18

## TAGAGG
[1]
  binding signal: 0.856
[2]
  binding signal: 0.866
[3]
  binding signal: 0.834

## ACAGGC
[1]
  binding signal: 0.68
[2]
  binding signal: 0.726
[3]
  binding signal: 0.645

## CCGTGG
[1]
  binding signal: 0.42
[2]
  binding signal: 0.403
[3]
  binding signal: 0.381

## AGTGAT
[1]
  binding signal: 0.95
[2]
  binding signal: 0.874
[3]
  binding signal: 0.842

## GACACA
[1]
  binding signal: 0.839
[2]
  binding signal: 0.996
[3]
  binding signal: 0.874

## AGTGCG
[1]
  binding signal: 0.683
[2]
  binding signal: 0.827
[3]
  binding signal: 0.752

## GCACAG
[1]
  binding signal: 0.711
[2]
  binding signal: 0.745
[3]
  binding signal: 0.756
